Assay results as given in PMC10238178.
No constants are given. Whether binding was seen depends on the method and setting. In cells and extracts the contact can be indirect. These calls come from enrichment with a bait or labelling near it, and not all partners need be listed.

B1: USP47 (endogenous, HEK293T) (enzyme, UniProt Q96K76 1-1375)
chain: MVPGEENQLVPKEDVFWRCRQNIFDEMKKKFLQIENAAEEPRVLCIIQDTTNSKTVNERITLNLPASTPVRKLFEDVANKVGYINGTFDLVWGNGINTADMAPLDHTSDKSLLDANFEPGKKNFLHLTDKDGEQPQILLEDSSAGEDSVHDRFIGPLPREGSGGSTSDYVSQSYSYSSILNKSETGYVGLVNQAMTCYLNSLLQTLFMTPEFRNALYKWEFEESEEDPVTSIPYQLQRLFVLLQTSKKRAIETTDVTRSFGWDSSEAWQQHDVQELCRVMFDALEQKWKQTEQADLINELYQGKLKDYVRCLECGYEGWRIDTYLDIPLVIRPYGSSQAFASVEEALHAFIQPEILDGPNQYFCERCKKKCDARKGLRFLHFPYLLTLQLKRFDFDYTTMHRIKLNDRMTFPEELDMSTFIDVEDEKSPQTESCTDSGAENEGSCHSDQMSNDFSNDDGVDEGICLETNSGTEKISKSGLEKNSLIYELFSVMVHSGSAAGGHYYACIKSFSDEQWYSFNDQHVSRITQEDIKKTHGGSSGSRGYYSSAFASSTNAYMLIYRLKDPARNAKFLEVDEYPEHIKNLVQKERELEEQEKRQREIERNTCKIKLFCLHPTKQVMMENKLEVHKDKTLKEAVEMAYKMMDLEEVIPLDCCRLVKYDEFHDYLERSYEGEEDTPMGLLLGGVKSTYMFDLLLETRKPDQVFQSYKPGEVMVKVHVVDLKAESVAAPITVRAYLNQTVTEFKQLISKAIHLPAETMRIVLERCYNDLRLLSVSSKTLKAEGFFRSNKVFVESSETLDYQMAFADSHLWKLLDRHANTIRLFVLLPEQSPVSYSKRTAYQKAGGDSGNVDDDCERVKGPVGSLKSVEAILEESTEKLKSLSLQQQQDGDNGDSSKSTETSDFENIESPLNERDSSASVDNRELEQHIQTSDPENFQSEERSDSDVNNDRSTSSVDSDILSSSHSSDTLCNADNAQIPLANGLDSHSITSSRRTKANEGKKETWDTAEEDSGTDSEYDESGKSRGEMQYMYFKAEPYAADEGSGEGHKWLMVHVDKRITLAAFKQHLEPFVGVLSSHFKVFRVYASNQEFESVRLNETLSSFSDDNKITIRLGRALKKGEYRVKVYQLLVNEQEPCKFLLDAVFAKGMTVRQSKEELIPQLREQCGLELSIDRFRLRKKTWKNPGTVFLDYHIYEEDINISSNWEVFLEVLDGVEKMKSMSQLAVLSRRWKPSEMKLDPFQEVVLESSSVDELREKLSEISGIPLDDIEFAKGRGTFPCDISVLDIHQDLDWNPKVSTLNVWPLYICDDGAVIFYRDKTEELMELTDEQRNELMKKESSRLQKTGHRVTYSPRKEKALKIYLDGAPNKDLTQD
B2: VCPIP1 (endogenous, HEK293T) (enzyme, UniProt Q96JH7 1-1222)
chain: MSQPPPPPPPLPPPPPPPEAPQTPSSLASAAASGGLLKRRDRRILSGSCPDPKCQARLFFPASGSVSIECTECGQRHEQQQLLGVEEVTDPDVVLHNLLRNALLGVTGAPKKNTELVKVMGLSNYHCKLLSPILARYGMDKQTGRAKLLRDMNQGELFDCALLGDRAFLIEPEHVNTVGYGKDRSGSLLYLHDTLEDIKRANKSQECLIPVHVDGDGHCLVHAVSRALVGRELFWHALRENLKQHFQQHLARYQALFHDFIDAAEWEDIINECDPLFVPPEGVPLGLRNIHIFGLANVLHRPIILLDSLSGMRSSGDYSATFLPGLIPAEKCTGKDGHLNKPICIAWSSSGRNHYIPLVGIKGAALPKLPMNLLPKAWGVPQDLIKKYIKLEEDGGCVIGGDRSLQDKYLLRLVAAMEEVFMDKHGIHPSLVADVHQYFYRRTGVIGVQPEEVTAAAKKAVMDNRLHKCLLCGALSELHVPPEWLAPGGKLYNLAKSTHGQLRTDKNYSFPLNNLVCSYDSVKDVLVPDYGMSNLTACNWCHGTSVRKVRGDGSIVYLDGDRTNSRSTGGKCGCGFKHFWDGKEYDNLPEAFPITLEWGGRVVRETVYWFQYESDSSLNSNVYDVAMKLVTKHFPGEFGSEILVQKVVHTILHQTAKKNPDDYTPVNIDGAHAQRVGDVQGQESESQLPTKIILTGQKTKTLHKEELNMSKTERTIQQNITEQASVMQKRKTEKLKQEQKGQPRTVSPSTIRDGPSSAPATPTKAPYSPTTSKEKKIRITTNDGRQSMVTLKSSTTFFELQESIAREFNIPPYLQCIRYGFPPKELMPPQAGMEKEPVPLQHGDRITIEILKSKAEGGQSAAAHSAHTVKQEDIAVTGKLSSKELQEQAEKEMYSLCLLATLMGEDVWSYAKGLPHMFQQGGVFYSIMKKTMGMADGKHCTFPHLPGKTFVYNASEDRLELCVDAAGHFPIGPDVEDLVKEAVSQVRAEATTRSRESSPSHGLLKLGSGGVVKKKSEQLHNVTAFQGKGHSLGTASGNPHLDPRARETSVVRKHNTGTDFSNSSTKTEPSVFTASSSNSELIRIAPGVVTMRDGRQLDPDLVEAQRKKLQEMVSSIQASMDRHLRDQSTEQSPSDLPQRKTEVVSSSAKSGSLQTGLPESFPLTGGTENLNTETTDGCVADALGAAFATRSKAQRGNSVEELEEMDSQDAEMTNTTEPMDHS
B3: USP15 (endogenous, HEK293T) (enzyme, UniProt Q9Y4E8 1-981)
chain: MAEGGAADLDTQRSDIATLLKTSLRKGDTWYLVDSRWFKQWKKYVGFDSWDKYQMGDQNVYPGPIDNSGLLKDGDAQSLKEHLIDELDYILLPTEGWNKLVSWYTLMEGQEPIARKVVEQGMFVKHCKVEVYLTELKLCENGNMNNVVTRRFSKADTIDTIEKEIRKIFSIPDEKETRLWNKYMSNTFEPLNKPDSTIQDAGLYQGQVLVIEQKNEDGTWPRGPSTPKSPGASNFSTLPKISPSSLSNNYNNMNNRNVKNSNYCLPSYTAYKNYDYSEPGRNNEQPGLCGLSNLGNTCFMNSAIQCLSNTPPLTEYFLNDKYQEELNFDNPLGMRGEIAKSYAELIKQMWSGKFSYVTPRAFKTQVGRFAPQFSGYQQQDCQELLAFLLDGLHEDLNRIRKKPYIQLKDADGRPDKVVAEEAWENHLKRNDSIIVDIFHGLFKSTLVCPECAKISVTFDPFCYLTLPLPMKKERTLEVYLVRMDPLTKPMQYKVVVPKIGNILDLCTALSALSGIPADKMIVTDIYNHRFHRIFAMDENLSSIMERDDIYVFEININRTEDTEHVIIPVCLREKFRHSSYTHHTGSSLFGQPFLMAVPRNNTEDKLYNLLLLRMCRYVKISTETEETEGSLHCCKDQNINGNGPNGIHEEGSPSEMETDEPDDESSQDQELPSENENSQSEDSVGGDNDSENGLCTEDTCKGQLTGHKKRLFTFQFNNLGNTDINYIKDDTRHIRFDDRQLRLDERSFLALDWDPDLKKRYFDENAAEDFEKHESVEYKPPKKPFVKLKDCIELFTTKEKLGAEDPWYCPNCKEHQQATKKLDLWSLPPVLVVHLKRFSYSRYMRDKLDTLVDFPINDLDMSEFLINPNAGPCRYNLIAVSNHYGGMGGGHYTAFAKNKDDGKWYYFDDSSVSTASEDQIVSKAAYVLFYQRQDTFSGTGFFPLDRETKGASAATGIPLESDEDSNDNDNDIENENCMHTN

Molecular target: Flag-β-TrCP
Assay: affinity purification with mass spectrometry; Flag-β-TrCP or empty vector transfected into HEK293T; MG132 20 µM 6 h; lysate on anti-Flag M2 affinity gel at 4 °C overnight; silver-stained gel bands to LC-MS/MS

binding, binds:
B1, B2, B3
